Results from PubChem BioAssay AID720504 (National Center for Advancing Translational Sciences (NCATS), 2013).
Hit rate of the full screen: of about 360,000 compounds, about 10,000 (2.8%) were called active. This list was built around the results that the source calls inconclusive (neither active nor inactive); the mix of calls is not that of the screen. Calls follow the shape of the dose curve; as a rule, active = well fitted inhibition curve with a large enough effect; inconclusive = small, poorly fitted or top-dose-only effect; inactive = flat fitted curve, though single readings scatter. Potencies of inconclusive entries are doubtful fits and often do not repeat.

Amino acid sequences for entries named in this document (tags omitted).
UniProt P53350, whole entry, looked up: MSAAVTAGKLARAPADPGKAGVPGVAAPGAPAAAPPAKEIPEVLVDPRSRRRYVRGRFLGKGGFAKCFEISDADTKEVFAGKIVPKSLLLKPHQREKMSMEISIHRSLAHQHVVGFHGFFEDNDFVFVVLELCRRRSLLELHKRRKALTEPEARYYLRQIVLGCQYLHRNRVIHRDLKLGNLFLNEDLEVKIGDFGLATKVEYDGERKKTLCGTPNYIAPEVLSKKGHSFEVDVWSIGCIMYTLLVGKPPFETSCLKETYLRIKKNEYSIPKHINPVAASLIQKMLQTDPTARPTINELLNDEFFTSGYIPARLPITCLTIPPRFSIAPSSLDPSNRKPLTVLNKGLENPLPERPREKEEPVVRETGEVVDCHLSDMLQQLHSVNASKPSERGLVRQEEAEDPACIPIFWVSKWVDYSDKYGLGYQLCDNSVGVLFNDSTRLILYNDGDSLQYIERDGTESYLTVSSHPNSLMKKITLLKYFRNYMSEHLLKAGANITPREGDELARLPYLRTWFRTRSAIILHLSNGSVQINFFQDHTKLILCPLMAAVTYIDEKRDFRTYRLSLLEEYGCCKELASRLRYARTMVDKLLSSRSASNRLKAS

biological target: Serine/threonine-protein kinase PLK1 (Homo sapiens) (UniProt P53350); assay: qHTS for Inhibitors of PLK1-PDB (polo-like kinase 1 - polo-box domain): Primary Screen; conditions: Plk1 PBD binding of FITC phosphopeptide, fluorescence polarization; also: nearly all actives have a fitted effect of over 65% in size; as to max response, negative = inhibition: series mostly up to about 57 µM
% is scaled to controls: 0 for no effect and ±100 for the full control effect; potency is read from the fitted curve at half-maximal effect.

| Structure (SMILES) | max response, negative = inhibition | Potency |
| --- | --- | --- |
| COc1ccccc1C(=O)NNC(=O)C1CC=CCC1 (stereo unspecified) | inactive: -9.11% | – |
| O=C(CNc1ccc(Br)cc1)Nc1ccc(S(=O)(=O)N2CCCCC2)cc1 | inactive: 2.23% | – |
| COc1ccc(OCC(O)CN2CCN(c3ncccn3)CC2)cc1 (stereo unspecified) | inactive: -5.68% | – |
| CS(=O)(=O)N(CC(=O)N1CCN(c2cccc(Cl)c2)CC1)C1CCCCC1 | inactive: -4.05% | – |
| O=C(N1CCCCC1)N1CCN(S(=O)(=O)c2ccccc2)CC1 | inactive: -11.6% | – |
| Cc1nnc(NC(=O)CCCOc2ccccc2)s1 | – | inconclusive: 29.9 µM [inhibitor, partial curve] |
| COc1ccc(CCNc2oc(COc3ccccc3F)nc2C#N)cc1OC | – | active: 26.7 µM |
| O=C1/C(=N\S(=O)(=O)c2cccs2)C([n+]2ccccc2)=C([O-])c2ccccc21 | – | inconclusive: 29.9 µM [inhibitor, single point] |
| N#C/C(=C\c1ccc(C(=O)O)cc1)c1nc2sc3c(c2c(=O)[nH]1)CCCC3 | – | inconclusive: 1.5 µM [inhibitor, full curve] |
| Cc1cc(NS(=O)(=O)c2ccc(NC(=S)NC(=O)c3ccc(C(C)(C)C)cc3)cc2)no1 | – | inconclusive: 37.7 µM [inhibitor, single point] |
| COc1ccccc1NC(=S)N(Cc1ccc(C)cc1)Cc1ccccn1 | inactive: 0.622% | – |
| O=C(CSc1nnc(NC(=O)c2ccccc2F)s1)NCC1CCCO1 (stereo unspecified) | – | inconclusive: 21.2 µM [inhibitor, single point] |
| CC(=O)N(C)c1ccc(N=Nc2c(C)[nH]n(C(N)=S)c2=O)cc1 | – | inconclusive: 26.7 µM [inhibitor, partial curve] |
| Cc1noc2ncnc(Oc3ccc(Cl)cc3Cl)c12 | – | inconclusive: 26.7 µM [inhibitor, single point] |
| CC(C)c1ccc(/C=N/n2c(COc3ccccc3)n[nH]c2=S)cc1 | – | active: 23.8 µM |
| COc1cc2c3c(c1)/C(=C1/SC(=S)NC1=O)C(=O)N3C(C)(C)C=C2C | – | inconclusive: 37.7 µM [inhibitor, single point] |
| COc1ccccc1NC(=O)/C(=N/OCc1ccc(C#N)cc1)C(C)=O | – | inconclusive: 26.7 µM [inhibitor, single point] |
| Cc1[nH]n(-c2ccccc2)c(=O)c1C(C[N+](=O)[O-])c1ccc(Cl)cc1 (stereo unspecified) | – | active: 11.9 µM |
| CCCCCCNC(=O)C(C#N)c1nc2ccccc2nc1N1CCOCC1 (stereo unspecified) | – | inconclusive: 21.2 µM [inhibitor, partial curve] |
| O=C(Nc1ccccc1C(=O)Nc1nnc(C(F)(F)F)s1)c1ccccc1 | – | inconclusive: 23.8 µM [inhibitor, single point] |
| CC(C)(C)c1ccc(CSc2ccc(S(=O)(=O)N3CCOCC3)cn2)cc1 | – | inconclusive: 26.7 µM [inhibitor, partial curve] |
| CC(C)(C)n1nc2c(c1NC(=O)Cc1ccc(F)cc1)CSC2 | inactive: -12% | – |
| O=C(CC1C(=O)NCCN1CC1CCCCC1)NCCCN1CCOCC1 (stereo unspecified) | inactive: -8.38% | – |
| CN(C)CC/C=C1\c2ccccc2Sc2cc(F)c(Cl)cc21 | inactive: 5.39% | – |

| Structure (SMILES) | max response, negative = inhibition | Potency |
| --- | --- | --- |
| O=C(O)c1cnn(-c2nc(-c3ccc(Br)cc3)cs2)c1C(F)(F)F | – | inconclusive: 21.2 µM [inhibitor, single point] |
| COc1ccc(CSc2ccc(S(=O)(=O)N3CCCC3)cn2)cc1F | inactive: -2.33% | – |
| CCOC(=O)C1=C(CSc2nc(C)ccc2C#N)OC(N)=C(C#N)C1c1cccc(OC)c1OC (stereo unspecified) | – | active: 21.2 µM |
| COC(=O)C1=C(C)N(Cc2ccccc2)C(=NCc2cc(OC)c(OC)c(OC)c2)N[C@H]1c1ccc(Br)cc1 | – | inconclusive: 21.2 µM [inhibitor, partial curve] |
| Cc1ccc2c(c1)C(SCC(=O)NCCc1ccccc1)CC1(CCCC1)O2 (stereo unspecified) | – | inconclusive: 37.7 µM [inhibitor, single point] |
| CN(C)S(=O)(=O)c1cccc(NC(=O)c2ccc(-n3cncn3)c([N+](=O)[O-])c2)c1 | inactive: 0.213% | – |
| COc1cccc(CNCCSc2nnnn2C)c1 | inactive: -0.729% | – |
| COc1ccc(Br)cc1/C=N/NC(=O)CN1CCN(Cc2ccccc2)CC1 | inactive: -1.56% | – |
| COC(=O)c1cc(S(=O)(=O)N2CCN(c3ccc(C(C)=O)cc3)CC2)cn1C | inactive: 5.21% | – |
| COc1ccc(C2c3c(oc4ccccc4c3=O)C(=O)N2CCCN2CCOCC2)cc1 (stereo unspecified) | – | inconclusive: 26.7 µM [inhibitor, partial curve] |
| COc1ccc(-n2sc3ccc(F)cc3c2=O)cc1 | – | active: 2.67 µM |
| CN(Cc1ccn[nH]1)C(=O)C1CCC(=O)N(Cc2cccc(C(F)(F)F)c2)C1 (stereo unspecified) | inactive: 6.11% | – |
| CN(C)Cc1cc(CN(C)C)c(O)c(CCc2ccccc2)n1 | – | inconclusive: 33.6 µM [inhibitor, single point] |
| COc1ccc(OC)c(C2CC(=O)N3CN(c4ccccc4F)CSC3=C2C#N)c1 (stereo unspecified) | – | inconclusive: 29.9 µM [inhibitor, single point] |
| CN(C)/C=C/C(=O)c1cccc([N+](=O)[O-])c1 | – | inconclusive: 21.2 µM [inhibitor, partial curve] |
| O=C(Nc1nnc(-c2cccs2)o1)c1cccc(Oc2ccccc2)c1 | – | inconclusive: 23.8 µM [inhibitor, partial curve] |
| COc1ccc(-c2cc(C(=O)N3CCN(c4ncccn4)CC3)c3ccccc3n2)c(OC)c1 | inactive: -17.4% | – |
| COc1ccc(C(C)=O)cc1CSCCC(=O)O | – | inconclusive: 16.8 µM [inhibitor, partial curve] |
| Cc1nc(SCC(=O)Nc2cccnc2Cl)nc(C)c1C | inactive: -19.4% | – |
| O=C(NC1CCN(C(=O)N2c3ccccc3Sc3ccccc32)CC1)c1ccccc1F | inactive: -0.0178% | – |
| Cc1ccc(S(=O)(=O)Nc2nc(C)c(NC(=O)Nc3ccc(Cl)cc3Cl)s2)cc1 | – | active: 21.2 µM |
| Cc1oc(-c2ccc(Cl)cc2)nc1CS(=O)CC(=O)NC(C)c1ccccc1 (stereo unspecified) | inconclusive: -32.2% [inhibitor] | – |
| O=C(NCCSc1c[nH]c2ccccc12)c1ccc2c(c1)OCO2 | inactive: -5.25% | – |
| CCOCCCn1c(=S)[nH]c2cc(C(=O)N3CCN(C)CC3)ccc2c1=O | inactive: -12.3% | – |

Molecules listed so far with a thiophene ring, fused or not, in the order listed:

| Structure (SMILES) | max response, negative = inhibition | Potency |
| --- | --- | --- |
| O=C1/C(=N\S(=O)(=O)c2cccs2)C([n+]2ccccc2)=C([O-])c2ccccc21 | – | inconclusive: 29.9 µM [inhibitor, single point] |
| N#C/C(=C\c1ccc(C(=O)O)cc1)c1nc2sc3c(c2c(=O)[nH]1)CCCC3 | – | inconclusive: 1.5 µM [inhibitor, full curve] |
| O=C(Nc1nnc(-c2cccs2)o1)c1cccc(Oc2ccccc2)c1 | – | inconclusive: 23.8 µM [inhibitor, partial curve] |

Next compounds follow:

| Structure (SMILES) | max response, negative = inhibition | Potency |
| --- | --- | --- |
| CCOC(=O)N1CCN(C(=O)C2CCN(C(=O)c3ccc(C(C)(C)C)cc3)CC2)CC1 | inactive: -7.22% | – |
| O=C(CCc1ccccc1)NC(NC(=S)Nc1ccc(Cl)cc1)C(Cl)(Cl)Cl (stereo unspecified) | – | active: 29.9 µM |
| O=C1N=C(N2CCOCC2)S/C1=C/c1cccs1 | – | inconclusive: 29.9 µM [inhibitor, single point] |
| C=C(C)C(=O)Nc1cccc(C2=NOC3(C2)C[C@H](C(N)=O)N(C(=O)c2ccccc2)C3)c1 (stereo partly specified) | inconclusive: -31.9% [inhibitor] | – |
| COc1ccc2c(c1)-c1nc(NC(=O)c3ccco3)sc1CC2 | – | inconclusive: 26.7 µM [inhibitor, single point] |
| Cc1ccc(CNC(=O)CS(=O)Cc2nc(-c3ccccc3F)oc2C)cc1 (stereo unspecified) | – | inconclusive: 29.9 µM [inhibitor, partial curve] |
| CCOC(=O)c1c(N2C(=O)CC(Sc3ccccc3C(=O)O)C2=O)sc(C)c1C (stereo unspecified) | – | inconclusive: 29.9 µM [inhibitor, partial curve] |
| Cc1cccc(NC(=O)CCc2ccc(S(=O)(=O)NC3CCCCC3)cc2)c1 | inconclusive: -35% [inhibitor] | – |
| CC(C)=CCC/C(C)=C/C=N/NC(=O)c1cccc([N+](=O)[O-])c1 | – | inconclusive: 37.7 µM [inhibitor, single point] |
| CCN(Cc1ccccc1)Cc1cc(OC)cc(OC)c1 | inactive: -13% | – |
| N#Cc1c(NC(=O)CSc2nc(N)cc(=O)[nH]2)sc2c1CCCC2 | inconclusive: -30.5% [inhibitor] | – |
| CC(C)(C)c1ccc(CNC(=O)C2CCCN2C(=O)Nc2ccccc2)cc1 (stereo unspecified) | inactive: -6.48% | – |
| CCCC(=O)OCCNc1cc(SCCC(=O)OC)c2nonc2c1[N+](=O)[O-] | – | inconclusive: 23.8 µM [inhibitor, partial curve] |
| O=C(O)CCCN1C(=O)/C(=C/C=C/c2ccco2)SC1=S | – | inconclusive: 23.8 µM [inhibitor, partial curve] |
| C/C(CC(=O)Nc1ccc(Cl)c(C(F)(F)F)c1)=N\NC(=O)c1cc2ccccc2cc1O | – | inconclusive: 29.9 µM [inhibitor, partial curve] |
| Nc1cc(OC(=O)c2ccccc2Br)nn1S(=O)(=O)c1ccccc1 | – | inconclusive: 18.9 µM [inhibitor, partial curve] |
| C[C@@H]1O[C@@H](Oc2c(-c3cc(O)c(O)c(O)c3)oc3cc(O)cc(O)c3c2=O)[C@H](O)[C@H](O)[C@H]1O | – | inconclusive: 37.7 µM [inhibitor, single point] |
| Oc1c(Br)cc(/C=N/NC(=S)NCc2ccco2)cc1Br | – | inconclusive: 33.6 µM [inhibitor, partial curve] |
| CC1CCN(CCCN2C(=O)C3C(C(=O)Nc4ccc(Cl)cc4)C4C=CC3(O4)C2C(=O)NC2CCCCC2)CC1 (stereo unspecified) | inactive: -10.1% | – |
| O=S(=O)(c1cnc[nH]1)N1CCN(c2ccc(F)cc2)CC1 | – | inconclusive: 21.2 µM [inhibitor, partial curve] |
| Nc1ccccc1SCc1cn2cccnc2n1 | – | inconclusive: 21.2 µM [inhibitor, partial curve] |
| CCN(CC)c1ccc(/C=N/NC(=S)NCc2ccccc2)c(O)c1 | inactive: -9.74% | – |
| CN(C(=O)c1ccccc1F)C(c1ccccc1)c1ccccc1 | inactive: -8.46% | – |
